Source: publication PMC9254885
No constants are given. Whether binding was seen depends on the method and setting. Binding seen in cells or lysates may run through a third protein. Some entries that bind do so weakly or less than the wild type. Tags and fused reporters may be left off the sequences shown.

Biological target: T1, endogenous CPS1 (HeLa cells) (human (endogenous in HeLa)) (UniProt P31327)
T1 sequence: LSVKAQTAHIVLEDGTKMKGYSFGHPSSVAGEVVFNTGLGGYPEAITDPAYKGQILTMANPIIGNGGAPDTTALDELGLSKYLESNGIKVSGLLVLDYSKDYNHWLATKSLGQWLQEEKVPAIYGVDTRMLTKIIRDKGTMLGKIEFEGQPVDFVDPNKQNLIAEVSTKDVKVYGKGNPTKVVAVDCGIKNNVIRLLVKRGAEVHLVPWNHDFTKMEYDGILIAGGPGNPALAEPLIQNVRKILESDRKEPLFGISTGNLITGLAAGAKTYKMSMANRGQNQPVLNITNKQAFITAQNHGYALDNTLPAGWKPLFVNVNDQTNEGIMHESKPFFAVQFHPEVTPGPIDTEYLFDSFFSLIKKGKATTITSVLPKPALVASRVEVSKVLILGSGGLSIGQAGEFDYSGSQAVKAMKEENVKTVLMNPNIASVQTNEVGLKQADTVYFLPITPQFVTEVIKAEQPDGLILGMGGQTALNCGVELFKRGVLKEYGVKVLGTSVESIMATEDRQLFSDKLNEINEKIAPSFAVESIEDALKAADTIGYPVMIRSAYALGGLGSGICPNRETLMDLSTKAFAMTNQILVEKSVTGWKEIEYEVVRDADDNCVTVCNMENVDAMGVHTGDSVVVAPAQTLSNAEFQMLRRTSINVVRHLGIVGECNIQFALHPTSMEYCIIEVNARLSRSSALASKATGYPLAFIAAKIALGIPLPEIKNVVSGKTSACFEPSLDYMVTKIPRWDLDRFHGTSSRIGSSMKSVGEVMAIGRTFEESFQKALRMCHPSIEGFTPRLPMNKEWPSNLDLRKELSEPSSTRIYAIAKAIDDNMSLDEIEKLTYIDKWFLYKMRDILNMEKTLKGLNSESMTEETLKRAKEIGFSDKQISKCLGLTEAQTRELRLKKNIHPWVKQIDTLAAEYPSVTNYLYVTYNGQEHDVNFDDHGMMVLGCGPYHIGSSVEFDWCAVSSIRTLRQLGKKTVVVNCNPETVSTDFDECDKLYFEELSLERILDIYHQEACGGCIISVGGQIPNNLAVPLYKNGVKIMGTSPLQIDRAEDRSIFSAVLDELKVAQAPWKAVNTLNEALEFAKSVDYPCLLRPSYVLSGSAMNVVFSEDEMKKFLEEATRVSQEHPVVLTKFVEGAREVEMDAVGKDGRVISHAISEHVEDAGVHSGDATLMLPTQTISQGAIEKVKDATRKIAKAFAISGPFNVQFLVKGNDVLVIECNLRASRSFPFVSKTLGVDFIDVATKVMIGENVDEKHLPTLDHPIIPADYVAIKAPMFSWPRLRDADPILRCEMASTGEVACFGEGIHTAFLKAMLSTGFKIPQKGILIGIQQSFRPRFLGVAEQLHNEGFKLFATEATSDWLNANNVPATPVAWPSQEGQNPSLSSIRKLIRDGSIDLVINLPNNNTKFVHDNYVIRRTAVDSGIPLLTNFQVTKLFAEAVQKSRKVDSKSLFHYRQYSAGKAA
Assay: co-IP; FLAG-tagged wild-type, D177N or Y891F OGA overexpressed in HeLa cells; co-IP with anti-CPS1 and anti-FLAG antibody; CPS1 endogenous

binding: binds
B1: FLAG-tagged wild-type OGA (O-GlcNAcase) (enzyme, UniProt O60502 1-916)
chain: MVQKESQATLEERESELSSNPAASAGASLEPPAAPAPGEDNPAGAGGAAVAGAAGGARRFLCGVVEGFYGRPWVMEQRKELFRRLQKWELNTYLYAPKDDYKHRMFWREMYSVEEAEQLMTLISAAREYEIEFIYAISPGLDITFSNPKEVSTLKRKLDQVSQFGCRSFALLFDDIDHNMCAADKEVFSSFAHAQVSITNEIYQYLGEPETFLFCPTEYCGTFCYPNVSQSPYLRTVGEKLLPGIEVLWTGPKVVSKEIPVESIEEVSKIIKRAPVIWDNIHANDYDQKRLFLGPYKGRSTELIPRLKGVLTNPNCEFEANYVAIHTLATWYKSNMNGVRKDVVMTDSEDSTVSIQIKLENEGSDEDIETDVLYSPQMALKLALTEWLQEFGVPHQYSSRQVAHSGAKASVVDGTPLVAAPSLNATTVVTTVYQEPIMSQGAALSGEPTTLTKEEEKKQPDEEPMDMVVEKQEETDHKNDNQILSEIVEAKMAEELKPMDTDKESIAESKSPEMSMQEDCISDIAPMQTDEQTNKEQFVPGPNEKPLYTAEPVTLEDLQLLADLFYLPYEHGPKGAQMLREFQWLRANSSVVSVNCKGKDSEKIEEWRSRAAKFEEMCGLVMGMFTRLSNCANRTILYDMYSYVWDIKSIMSMVKSFVQWLGCRSHSSAQFLIGDQEPWAFRGGLAGEFQRLLPIDGANDLFFQPPPLTPTSKVYTIRPYFPKDEASVYKICREMYDDGVGLPFQSQPDLIGDKLVGGLLSLSLDYCFVLEDEDGICGYALGTVDVTPFIKKCKISWIPFMQEKYTKPNGDKELSEAEKIMLSFHEEQEVLPETFLANFPSLIKMDIHKKVTDPSVAKSMMACLLSSLKANGSRGAFCEVRPDDKRILEFYSKLGCFEIAKMEGFPKDVVILGRSL
